# Test results as given in paper PMC12040169 (PLOS Biology, 2025).
# The list shows a part of the results.
# Tested on: T1, CTL2-GFP (C. trachomatis L2/434/Bu, GFP-expressing)
# T1 construct: L2/434/Bu, GFP-expressing
# Parameters: species or system HeLa; Intracellular C. trachomatis growth in HeLa cells, bulk GFP fluorescence relative to DMSO
# Conditions: bulk GFP, single well; 28.5 h, 10 µM; inhibitor
row,Structure (SMILES),% of control remaining [%]
1,Cn1c(=O)oc2ccc(C(=O)Nc3cccc(-c4ccc(F)cc4)c3)cc21 [CBK286023],111.855
2,CN(C)C(=O)Cn1nc(-c2cccc(-n3cccc3)c2)oc1=O [CBK283759],88.6144
3,CN(CC(=O)Nc1ccc([N+](=O)[O-])cc1)S(=O)(=O)c1ccc2ccccc2c1 [CBK267422],133.459
4,COCCOC(=O)N1CCC(C(=O)NC(c2ccc(Cl)cc2)c2cccs2)CC1 (stereo not shown) [CBK059702],84.5749
5,Fc1cccc(-c2nc3cnccn3c2NC2CCCC2)c1 [CBK283780],137.057
6,OCc1ccc(-c2nccnc2NCc2ccccn2)cc1 [CBK037088],146.008
7,CC1=CC(C)C(CN2CC34C=CC(O3)C(C(=O)O)C4C2=O)C(C)C1 (stereo not shown) [CBK287005],129.676
8,CCC(CC(=O)NCc1c(C)n[nH]c1C)c1c[nH]c2ccccc12 (stereo not shown) [CBK282651],124.797
9,O=C(Nc1ccc(Br)c2cccnc12)c1ccc(COc2ccccc2)cc1 [CBK266062],143.591
10,Nc1cccc(Sc2cccc(C(F)(F)F)n2)c1 [CBK115239],122.137
11,Cc1ccc(NC(=O)N(C)C2CCN(C)C2)cc1 (stereo not shown) [CBK156023],76.0158
12,Cc1ccccc1-c1ocnc1C(=O)NCc1ccco1 [CBK282408],137.929
13,Cn1c(N2CC[C@H](O)C2)nc2cc(C(=O)NC3CCCC3)ccc21 [CBK306779],121.114
14,CC(CC(=O)O)CC(=O)NNc1ncc(Cl)cc1Cl (stereo not shown) [CBK264398],114.105
15,CC(=O)Nc1ccc(S(=O)(=O)N2CCN(S(=O)(=O)N(C)C)CC2)cc1 [CBK266545],162.376
16,CCn1ncc(CN(C)C(=O)CCN2CCCCCC2=O)c1C [CBK306718],113.766
17,Cc1ccc(NC(=O)c2cnc3scc(C)n3c2=O)cc1 [CBK287454],110.942
18,CC(C)c1cc(C(=O)NCCN2CCc3ccccc32)n(C)n1 [CBK282685],104.865
19,CC(=O)Nc1ccc(/C=N/NC(=O)c2nnn(-c3nonc3N)c2-c2ccccc2)cc1 [CBK262790],115.939
20,CC(Oc1ccccc1)C(=O)N1CCN(CCO)CC1 (stereo not shown) [CBK267428],130.519
21,COc1ccc(N2CCN(/C(=N/S(=O)(=O)c3ccccc3)Nc3nc(C)cc(C)n3)CC2)cc1 [CBK266750],128.04
22,O=C(O)CCCn1cc(NC(=O)CCc2ccccc2)cn1 [CBK287055],146.666
23,CC(C)N1C(=O)C2(CC(=O)N(CCCN3C(=O)c4ccccc4C3=O)C2=O)c2cc(F)ccc21 (stereo not shown) [CBK075969],110.255
24,COc1ccccc1-c1nccnc1OCCc1ccc(NC(C)=O)cc1 [CBK106815],99.2891
25,O=C(O)C1CCCCC1C(=O)Nc1ccc(S(=O)(=O)N2CCCCC2)cc1 (stereo not shown) [CBK267950],103.985
26,COc1ccc(CCN(Cc2ccc(Cl)c(Cl)c2)C(=O)Nc2cccnc2)cc1OC [CBK158797],110.631
27,Cc1c(C(=O)N2CCCCC2C(N)=O)nnn1-c1cccc(Cl)c1 (stereo not shown) [CBK305490],117.23

row,Structure (SMILES),% of control remaining [%]
1,O=C(c1ccco1)N1CCC(n2nc(C3CC3)ccc2=O)CC1 [CBK282350],112.606
2,COc1ccccc1NC(=O)NC(=O)C1CCN(C(C)=O)CC1 [CBK034853],98.3456
3,COc1ccc(Nc2cc(-n3nc(C)cc3-c3ccccc3)ncn2)cc1 [CBK293925],100.374
4,Cc1ccc(Cn2ccsc2=NC(=O)c2cc(S(=O)(=O)N3CCOCC3)ccc2C)cc1 [CBK296935],82.3303
5,Cc1cc(CN2CCN(C(=O)NCc3cccnc3)CC2)on1 [CBK305627],145.919
6,COc1cc2c(c(OC)c1OC)CC(=O)NC21CCN(C(=O)NC(C)(C)C)CC1 [CBK047301],100
7,CC(c1ccccc1)C(CC(=O)O)C(=O)NCc1ccccc1 (stereo not shown) [CBK286830],107.398
8,COc1cccc(OC)c1-c1cn2ccnc2c(NCc2ccccn2)n1 [CBK037439],164.904
9,O=C(O)CCCn1cc(NC(=O)c2cccc(F)c2)cn1 [CBK270051],128.628
10,O=C(O)C1CCC(CNc2ccc([N+](=O)[O-])cn2)CC1 (stereo not shown) [CBK286626],125.166
11,Cc1nc2c(C)cccc2c(O)c1CN1CCCCCC1 [CBK264512],135.299
12,CCN(CC)c1nc(Cl)c(C#N)c2c1CN(C)CC2 [CBK009140],125.211
13,O=C1COc2ccccc2C/C=C/C[C@H]2CN(C(=O)Cn3ncc4ccccc4c3=O)CC[C@H]2N1 [CBK292084],107.476
14,Cc1cccc(C)c1NC(=O)CC1Sc2ccccc2NC1=O (stereo not shown) [CBK267160],167.98
15,Cc1oc(NC(=O)CN2CCN(c3ncccn3)CC2)c(C#N)c1C [CBK305569],114.069
16,O=C(CN1CCCCC1)Nc1c(-c2ccccc2)c2cc(Br)ccc2[nH]c1=O [CBK263351],116.702
17,CC(=O)C(Sc1nc(NC(C)C)nc(N(C)C)n1)C(C)=O [CBK269811],117.307
18,O=C(O)c1ccc(-n2nnnc2SCc2ccccc2)cc1 [CBK287161],108.969
19,COc1ccc(CN2CCN(Cc3ccc4c(c3)OCO4)CC2)c(OC)c1OC [CBK033874],109.212
20,CCCN1CCC(NC(=O)c2cccc(S(N)(=O)=O)c2)CC1 [CBK305956],134.812
21,CN(C(=O)Cc1ccsc1)c1nc2c(s1)CCc1c-2cnn1C [CBK281929],47.0702
22,O=C1c2ccc(Oc3ccc4c(c3)C(=O)N(c3ccccn3)C4=O)cc2C(=O)N1c1ccccn1 [CBK261202],100
23,Cc1ncsc1C(=O)NCc1ccc(S(=O)(=O)N2CCCCC2)cc1 [CBK305556],137.278
24,COc1cccc(C(=O)N2CCCC(c3cc4ncccc4[nH]3)C2)c1 (stereo not shown) [CBK283416],92.3473
25,CN(c1cc(F)ccc1[N+](=O)[O-])S(=O)(=O)c1ccccc1 [CBK001369],103.054
26,O=S(=O)(Oc1ccc2ccccc2c1)c1ccc2c(c1)Cc1cc(S(=O)(=O)Oc3ccc4ccccc4c3)ccc1-2 [CBK262385],95.0267
27,Cc1ccc(C(C)C)c(OCC(=O)NS(=O)(=O)c2ccc(Br)cc2)c1 [CBK268719],153.943

row,Structure (SMILES),% of control remaining [%]
1,Cc1nnnn1CC(=O)Nc1nn(C)c2cccc(N3CCOCC3)c12 [CBK307335],122.776
2,Cn1ccnc1CNC(=O)c1cccc(OCC(=O)N2CCCCC2)c1 [CBK306635],123.198
3,Oc1ccc2ccccc2c1/C=N/Nc1nnc(-c2ccccc2)c(-c2ccccc2)n1 [CBK262005],115.633
4,O=C(N[C@@H](Cc1ccc(OCc2ccc(Cl)cc2Cl)cc1)C(=O)O)C1CCCC1 [CBK017610],137.485
5,Cc1ccc(S(=O)(=O)c2ccc(C)c(S(=O)(=O)N3CCCC3)c2)cc1S(=O)(=O)N1CCCC1 [CBK261772],100
6,O=S(=O)(Nc1cccc(C(F)(F)F)c1)c1cc2c(N3CCNCC3)nccc2s1 [CBK039085C],86.7988
7,COc1cccc(CN2CCC3(CCCNC3=O)CC2)c1 [CBK284824],112.461
8,CC(C)C(=O)Nc1cc2cccnc2c(-c2ccc3c(c2)CCO3)n1 [CBK081260],116.471
9,O=C(CC(C(=O)O)N1CCOCC1)Nc1ccccc1 (stereo not shown) [CBK267008],119.231
10,O=C(Nc1ccc(N2CCNCC2)nc1)c1cccs1 [CBK029430T],144.521
11,O=C(Cc1c[nH]c2ccccc12)Nc1cncc(OC2CCNCC2)n1 [CBK028441T],100
12,Cc1nccn1CCNC(=O)CCc1cn(C)c2ccccc12 [CBK281962],120.389
13,COc1nc(-c2cccnc2)cn2ccnc12 [CBK093490],145.996
14,CC(=O)NCCNc1ccc(C(=O)O)cc1[N+](=O)[O-] [CBK264184],134.241
15,OC1(c2cccnc2F)CCN(Cc2ccc(Cl)cc2)CC1 [CBK284368],94.9825
16,Cc1ccc(C(=O)O)cc1NC(=O)C(=O)NCC(c1ccccc1)N1CCN(C)CC1 (stereo not shown) [CBK286864],139.345
17,O=C(CCCc1nc(-c2ccc(Cl)cc2)no1)NCc1cccnc1 [CBK269415],122.111
18,CCOC(=O)c1c(C)nc2n(CCN3CCCCC3)c3ccccc3n12 [CBK278238C],100
19,O=C(NCCN1CCOCC1)C1CCN(c2nc3c(-c4ccccc4F)csc3c(=O)[nH]2)CC1 [CBK215442],133.017
20,Cn1nc(-c2ccc(S(=O)(=O)n3cc(C#N)c(N)n3)s2)cc1C(F)(F)F [CBK067237],123.861
21,OCCN(CCO)CC1CC2C=CC1C2 (stereo not shown) [CBK261874],120.818
22,CN(C)CC(C)(C)CN1C2CCC1CC(O)(c1ccccc1F)C2 (stereo not shown) [CBK282648],151.361
23,O=C(Cn1c(-c2cccs2)cc2cccnc21)N1CCOCC1 [CBK282452],125.457
24,Cc1cccc(=O)n1CCCn1cc(C2CCCNC2)nn1 (stereo not shown) [CBK306946],138.385
25,O=C(c1ccncc1)C12CN3CN(CN(C3)C1)C2 [CBK261451],100

# Already shown: 3 of the compounds above.
row,Structure (SMILES),% of control remaining [%]
1,Cc1nnnn1CC(=O)Nc1nn(C)c2cccc(N3CCOCC3)c12 [CBK307335],122.776
2,Cn1ccnc1CNC(=O)c1cccc(OCC(=O)N2CCCCC2)c1 [CBK306635],123.198
3,Oc1ccc2ccccc2c1/C=N/Nc1nnc(-c2ccccc2)c(-c2ccccc2)n1 [CBK262005],115.633
